In all, about 400,000 compounds went through this assay and about 13,000 (3.2%) were called active. Inconclusive results, whose numbers are uncertain, are shown with a selection of clear calls. Calls follow the shape of the dose curve; as a rule, active = well fitted cell-killing curve with a large enough effect; inconclusive = small, poorly fitted or top-dose-only effect, or effect the other way; inactive = flat fitted curve, though single readings scatter. Potencies beside an inconclusive call are fits to weak or partial responses and may not hold up.
Assay: qHTS assay for MDR1-selective chemotherapeutics: Primary screen using the drug-selected MDR subline cells KB-V1; also: nearly all actives have a fitted effect of over 60% in size
Conditions: KB-V1 MDR cells viability, CellTiter-Glo, 72 h; activity change, negative = cytotoxicity: at 46.1 µM (top of the series)
Procedure, shortened: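 KB-V1, DMEM (no phenol red) + 10% FBS; cpd pin-transferred, titration series; 72 h, 37 degrees C; CellTiter-Glo, luminescence. Data normalized, curve-fit.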
% is scaled to controls: 0 for no effect and ±100 for the full control effect; potency is read from the fitted curve at half-maximal effect.

Row | SMILES | Potency | activity change, negative = cytotoxicity
1 | COc1cc(NC(=O)c2cc3cc4ccc(C)cc4nc3o2)cc(OC)c1OC | inactive | 
2 | CCOC(=O)C(C)Sc1nc2ccccc2c(=O)n1CC (stereo not given) | inconclusive: 29.1 µM [cytotoxic, single point] | 
3 | O=c1cc(N2CCN(c3cccc(Cl)c3)CC2)[nH]c(=O)n1C1CCCCC1 | inconclusive: 2.59 µM [cytotoxic, full curve] | 
4 | Cc1ccc(-n2ncc(C(=O)NCc3ccco3)c2C2CCN(C(=O)OC(C)(C)C)CC2)cc1C | inactive | 
5 | C/C(=N\Nc1c([N+](=O)[O-])c(C)nn1C)c1ccc(F)cc1F | inconclusive: 23.1 µM [cytotoxic, single point] | 
6 | O=C(N/N=C/c1c(O)n(Cc2ccccc2)c(=O)c2ccccc12)c1cccnc1 | inconclusive: 20.6 µM [cytotoxic, single point] | 
7 | Cc1ccc(NC(=O)c2ccc3ccccc3n2)cc1S(=O)(=O)N1CCOCC1 | inconclusive: 29.1 µM [cytotoxic, single point] | 
8 | Cc1ccccc1-c1ccc(Nc2ccc(N3CCOCC3)cc2)nn1 | active: 20.6 µM | 
9 | CC(=O)Nc1ccc(-c2csc(NC(=O)CCNC(=O)c3ccco3)n2)cc1 | inconclusive: 2.06 µM [rising, partial curve, poor fit] | 
10 | CCN(C(=O)CN1C(=S)NC(C)(C)CC1C)c1ccc(C)c(C)c1 (stereo not given) | inconclusive: 6.51 µM [cytotoxic, partial curve] | 
11 | Cc1ccc(N=c2c([N+](=O)[O-])nn(-c3ccc4c(c3)OCCO4)n2O)cc1F | inactive | 
12 | NC(N)=NC(=S)Nc1ccc(Cl)cc1 | inconclusive: 20.6 µM [cytotoxic, partial curve, poor fit] | 
13 | O=C(CNC(=O)c1ccccc1Cl)N/N=C/c1ccc([N+](=O)[O-])s1 | inconclusive: 18.4 µM [cytotoxic, partial curve] | 
14 | O=C(Nc1sc2c(c1C(=O)NCc1cccnc1)CCCC2)c1ccco1 | active: 23.1 µM | 
15 | CC(C)(C)NS(=O)(=O)c1ccc(NC(=O)C(Sc2ccccc2)c2ccccc2)cc1 (stereo not given) | inconclusive: 22.4 µM [cytotoxic, single point] | 
16 | O=C(CSc1nccc(=O)[nH]1)NC1CCCC1 | inactive | 
17 | CCc1c(C)c2cc3c(c(C)c2oc1=O)OCN(CCc1ccccc1F)C3 | inactive | 
18 | CCOC(=O)c1c(C)[nH]c(C(=O)COC(=O)/C=C/c2ccc3c(c2)OCO3)c1C | inconclusive: 29.1 µM [cytotoxic, single point] | 
19 | COc1ccc(OC)c(NS(=O)(=O)c2ccc(NC(=O)C3COc4ccccc4O3)cc2)c1 (stereo not given) | inconclusive: 23.1 µM [cytotoxic, partial curve, poor fit] | 
20 | Cc1ccc2ccccc2n1 | inactive | 
21 | CC(NC(=O)CSc1nc(C2CC2)n(-c2ccccc2)n1)c1ccco1 (stereo not given) | active: 13 µM | 
22 | COc1ccc(C(=O)N2CCN(c3ccc(NC(=O)Cc4ccccc4)cc3)CC2)cc1 |  | inconclusive: -57.3%
23 | NC(=O)C1(N2CCCCC2)CCN(C(=O)CSc2nc3ccccc3o2)CC1 | inconclusive: 10.3 µM [cytotoxic, partial curve, poor fit] | 
24 | CCn1c(NC(=O)C2CCCCC2)nc2ccccc21 | inconclusive: 29.1 µM [cytotoxic, single point] | 

Row | SMILES | Potency | activity change, negative = cytotoxicity
25 | O=Nc1c(O)[nH]c2ccc(Cl)c(Cl)c12 | inconclusive: 0.0073 µM [cytotoxic, full curve, poor fit] | 
26 | CCc1n[nH]c(=S)n1/N=C/C(C)=C\c1ccccc1 | active: 7.31 µM | 
27 | Cn1c(=O)c2[nH]c(C=Cc3ccc4c(c3)OCO4)nc2n(C)c1=O | inactive | 
28 | CC1CCN(Cc2nc(-c3ccccc3)no2)CC1 | inconclusive: 14.6 µM [cytotoxic, partial curve, poor fit] | 
29 | CCN(CC)S(=O)(=O)c1ccc(C(=O)NCCSc2c(-c3ccccc3)[nH]c3ccccc23)cc1 | inactive | 
30 | O=C1CSC(=NC2CCCCC2)N1 | inactive | 
31 | CN1/C(=C\C(=O)c2cncc(Br)c2)C(C)(C)c2ccccc21 | inconclusive: 16.4 µM [cytotoxic, single point] | 
32 | Cc1cc2cc3c(cc2nc1SCC(=O)N1c2ccccc2CC1C)OCO3 (stereo not given) | inconclusive: 16.4 µM [cytotoxic, partial curve] | 
33 | Cc1cc2ncn(C(=O)c3ccc4c(c3)OCO4)c2cc1C | inconclusive: 16.4 µM [rising, single point] | 
34 | SC(COCc1ccccc1)CN1CCN(Cc2ccc3c(c2)OCO3)CC1 (stereo not given) | inconclusive: 25.9 µM [cytotoxic, single point] | 
35 | Cc1cccc2cc(C3CC(c4ccco4)=NN3S(=O)(=O)c3ccccc3)c(Cl)nc12 (stereo not given) | inconclusive: 7.31 µM [cytotoxic, partial curve] | 
36 | CCCn1c(=O)c(C(=O)Nc2ccccc2)c(O)c2ccccc21 | active: 23.1 µM | 
37 | Cc1ccc(-c2nn3c(C)nnc3c3ccccc23)cc1S(=O)(=O)NCC(C)O (stereo not given) | inactive | 
38 | COc1cc(NC(=O)CSc2c3c(nc4ccccc24)CCC3)cc(OC)c1OC | active: 14.6 µM | 
39 | CCC1=C/C(=C/c2sc3ccccc3[n+]2CC)CC(C)(C)C1 | inconclusive: 29.1 µM [cytotoxic, single point] | 
40 | CC1(C)CC2CC(C)(CN2C(=S)NC(=O)c2ccccc2Cl)C1 (stereo not given) | inconclusive: 16.4 µM [cytotoxic, single point] | 
41 | O=C(COC(=O)CCC1CCCC1)Nc1ccccc1Br | inconclusive: 23.1 µM [cytotoxic, single point] | 
42 | CCOc1ccccc1NC(=O)C(=O)Nc1ccc2nc3n(c(=O)c2c1)CCCCC3 | inconclusive: 23.1 µM [rising, single point] | 
43 | C[C@@H]1CN([C@H](C)CO)C(=O)CCCn2nncc2CO[C@@H]1CN(C)S(=O)(=O)c1ccc(F)cc1 | inactive | 
44 | Cc1ccc2c(c1)c1cccc3c1n2CCN3CCC(N)=O | inconclusive: 4.61 µM [cytotoxic, full curve] | 
45 | Cc1nc2c3ccccc3nc(SCC(=O)c3ccc(Cl)cc3)n2n1 | active: 10.3 µM | 
46 | CCOC(=O)N1CCC(NS(=O)(=O)c2ccc(C)c(Cl)c2)CC1 | inconclusive: 25.9 µM [cytotoxic, single point] | 
47 | COc1cccc(-c2cnc(C(O)c3c(C)cc(C)cc3C)[nH]2)c1 (stereo not given) | inconclusive: 20.6 µM [cytotoxic, single point] | 
48 | CCCSc1ncnc2[nH]ncc12 | inconclusive: 23.1 µM [cytotoxic, single point] | 

Shown in CSV form: three of the compounds above.
Row,SMILES,Potency,"activity change, negative = cytotoxicity"
40,CC1(C)CC2CC(C)(CN2C(=S)NC(=O)c2ccccc2Cl)C1 (stereo not given),"inconclusive: 16.4 µM [cytotoxic, single point]",
41,O=C(COC(=O)CCC1CCCC1)Nc1ccccc1Br,"inconclusive: 23.1 µM [cytotoxic, single point]",
42,CCOc1ccccc1NC(=O)C(=O)Nc1ccc2nc3n(c(=O)c2c1)CCCCC3,"inconclusive: 23.1 µM [rising, single point]",

Shown as tab-separated lines: part of the list above
Row	SMILES	Potency	activity change, negative = cytotoxicity
39	CCC1=C/C(=C/c2sc3ccccc3[n+]2CC)CC(C)(C)C1	inconclusive: 29.1 µM [cytotoxic, single point]	
40	CC1(C)CC2CC(C)(CN2C(=S)NC(=O)c2ccccc2Cl)C1 (stereo not given)	inconclusive: 16.4 µM [cytotoxic, single point]	

(more compounds)

Row | SMILES | Potency | activity change, negative = cytotoxicity
49 | OCc1cnc(SCc2ccccc2F)n1Cc1ccc(F)cc1 | inactive | 
50 | CC1(C)Cc2ccccc2C(=NC(Cc2ccccc2)C(=O)O)N1 (stereo not given) | inconclusive: 29.1 µM [cytotoxic, single point] | 
51 | COc1ccc(/C=C(\C#N)C(=O)OCC(=O)Nc2c(C)cccc2C(C)C)cc1 | inconclusive: 18.4 µM [rising, single point] | 
52 | O=C(CNS(=O)(=O)c1ccc(Br)cc1)N1CCN(Cc2ccccc2)CC1 | inconclusive: 18.4 µM [cytotoxic, partial curve] | 
53 | CCCNC(=O)C1(C)CCCN(Cc2cc(-c3ccccc3)nn2C)C1 (stereo not given) | inconclusive: 18.4 µM [cytotoxic, partial curve] | 
54 | COC(OC)c1ccc(C#N)c(SCc2ccc(C)cc2)n1 | inconclusive: 29.1 µM [cytotoxic, single point] | 
55 | Fc1ccccc1Cc1noc(CN(Cc2ccccn2)CC2CCCO2)n1 (stereo not given) | inconclusive: 11.6 µM [cytotoxic, partial curve] | 
56 | CCn1c(=O)cc(SCC(=O)NCC2CCCO2)c2ccccc21 (stereo not given) | inconclusive: 20.6 µM [cytotoxic, single point] | 
57 | CC(C)(c1ccccc1)c1ccc(OCC(O)CNC2CCN(Cc3ccccc3)CC2)cc1 (stereo not given) | active: 18.4 µM | 
58 | Clc1ccc(OCc2nnc(-c3ccccc3Br)o2)c(Cl)c1 | inconclusive: 20.6 µM [cytotoxic, partial curve, poor fit] | 
59 | COc1ccc(/C=N/NC(=O)c2cccnc2)cc1 | inconclusive: 14.6 µM [rising, partial curve, poor fit] | 
60 | O=C(Nc1ccc2nc(N3CCOCC3)sc2c1)c1cc2ccccc2o1 | inconclusive: 20.6 µM [cytotoxic, partial curve, poor fit] | 
61 | Cc1cc(C)cc(NC(=O)Cc2noc3ccccc23)c1 | inconclusive: 0.731 µM [cytotoxic, full curve, poor fit] | 
62 | CCOc1ccc(N(CC(=O)NCc2cccnc2)S(=O)(=O)c2ccc(F)cc2)cc1 | inconclusive: 20.6 µM [cytotoxic, single point] | 
63 | COc1ccccc1-c1cc(C(=O)Nc2cccnc2Cl)no1 | inactive | 
64 | O=C(NC1CCCc2ccccc21)c1ccc(Br)cc1 (stereo not given) | inconclusive: 29.1 µM [cytotoxic, single point] | 
65 | CC(=O)Nc1cc[n+](CC(=O)c2cccc([N+](=O)[O-])c2)cc1 | inactive | 
66 | Cc1ccc(SCCC(=O)Nc2ccccc2C(=O)NC(C)C)cc1 | active: 2.91 µM | 
67 | CCOC(=O)C1Nc2ccc(C(F)(F)F)cc2C2c3ccccc3CC12 (stereo not given) | active: 18.4 µM | 
68 | Cc1cc(NC(=O)Cn2nc(C(F)(F)F)c3c2CCC3)n(-c2ccccc2)n1 | inconclusive: 23.1 µM [cytotoxic, partial curve, poor fit] | 
69 | CCOC(=O)c1sc(=NC(=O)CCSc2ccccc2)n(C)c1C | inconclusive: 9.2 µM [cytotoxic, partial curve, poor fit] | 
70 | COc1ccc(CNC(=O)C2Cc3ccccc3CN2C(=O)c2ccco2)cc1 (stereo not given) | inconclusive: 0.58 µM [rising, full curve, poor fit] | 

Source: PubChem BioAssay AID1347076 (National Center for Advancing Translational Sciences (NCATS), 2019)
